Two molecules from paper PMC8099431 can be followed below.

These are yes or no findings as the source states them, for the method shown. Binding seen in cells or lysates may run through a third protein. Some binding calls cover weakened binding; strength is not graded here. Where a sequence is shown, tags or fusion partners need not be part of it.

In this experiment the target is T1, PAN-1::HA::His (full-length pan-1b in pcDNA3.1) (C. elegans) (UniProt Q9U3A0).
T1 sequence: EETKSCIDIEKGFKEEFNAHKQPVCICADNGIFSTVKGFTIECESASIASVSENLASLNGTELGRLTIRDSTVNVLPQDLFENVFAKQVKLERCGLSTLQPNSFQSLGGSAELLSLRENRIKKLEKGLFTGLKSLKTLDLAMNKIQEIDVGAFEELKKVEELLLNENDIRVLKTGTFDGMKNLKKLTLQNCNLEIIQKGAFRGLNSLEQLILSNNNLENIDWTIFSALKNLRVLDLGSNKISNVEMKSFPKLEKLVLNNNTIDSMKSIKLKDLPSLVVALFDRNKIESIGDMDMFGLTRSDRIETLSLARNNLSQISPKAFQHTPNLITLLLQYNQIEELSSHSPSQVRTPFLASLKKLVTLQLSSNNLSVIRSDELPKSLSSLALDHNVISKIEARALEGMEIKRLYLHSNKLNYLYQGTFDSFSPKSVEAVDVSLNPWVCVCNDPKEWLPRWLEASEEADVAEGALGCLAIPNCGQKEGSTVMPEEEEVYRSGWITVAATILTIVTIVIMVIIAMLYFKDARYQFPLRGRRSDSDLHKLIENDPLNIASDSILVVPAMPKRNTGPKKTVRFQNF
Put plainly: co-IP; both proteins co-expressed in HEK293T cells; lysis in 50 mM Tris pH 7.4, 150 mM NaCl, 1% NP40, 0.25% sodium taurodeoxycholate, 1 mM EDTA; rabbit anti-HA overnight at 4°C, Dynabeads protein A; western blot with murine anti-HA, anti-V5 or anti-Flag.

B1: 6xHis::3xFlag::myrf-1 (1–482) (pQA1250) (domain or fragment, UniProt G5EFI7 1-482)
chain: MSSSDLLKGEFDGLNSEHFNMMQYLTQDTDEDDGSMVSPTSSADSMHQNLGVQQQQQQMLQAQQRQNQNGIFQPRRFPESPAMTDPCGNVSSSSSSSHHSDPMFSPNEFNGYAGANDNGNQTMNNIQSQQLSQQQHQQTRGGNLMMPQQSSIHAQMQNMNAPQFWSQPGTAAVNQPTNTLAQLNLFNIIRGGADSGMPSPVLEMPRKRSRLDTPCETPRIAPSFAGIDGFPDENYSQQQAIRFSKFQEEQWSPLYDINAQPLQQLQVHVVADKGFNYNSNDNCFVNQKKNHFQISVNVEASDTMPPKYVNFNNRLVPIRDFKLSFCGVKAEMPSSEITIRQSRADRKPHTHTPVLFEIQERRMTKVCVPRLHFSETTLNNQRKQKNRPNPEQKFFLLVVRLFASIDESEHGVLIQSYASEKVIVRATNPGSFEPQDTDIGWQRNGGALYTQGAVSVGTEHQVESAKLTVAGDIYMSGRIINP
Regarding B1, the binding result is given as “no binding”.

B2: V5::MYRF-1::3xFlag (full-length myrf-1, pQA1228) (protein, UniProt G5EFI7 1-931)
chain: MSSSDLLKGEFDGLNSEHFNMMQYLTQDTDEDDGSMVSPTSSADSMHQNLGVQQQQQQMLQAQQRQNQNGIFQPRRFPESPAMTDPCGNVSSSSSSSHHSDPMFSPNEFNGYAGANDNGNQTMNNIQSQQLSQQQHQQTRGGNLMMPQQSSIHAQMQNMNAPQFWSQPGTAAVNQPTNTLAQLNLFNIIRGGADSGMPSPVLEMPRKRSRLDTPCETPRIAPSFAGIDGFPDENYSQQQAIRFSKFQEEQWSPLYDINAQPLQQLQVHVVADKGFNYNSNDNCFVNQKKNHFQISVNVEASDTMPPKYVNFNNRLVPIRDFKLSFCGVKAEMPSSEITIRQSRADRKPHTHTPVLFEIQERRMTKVCVPRLHFSETTLNNQRKQKNRPNPEQKFFLLVVRLFASIDESEHGVLIQSYASEKVIVRATNPGSFEPQDTDIGWQRNGGALYTQGAVSVGTEHQVESAKLTVAGDIYMSGRIINPSDIRLKEAITERETAEAIENLLKLRVVDYRYKPEVADIWGLDEQQRHRTGLIAQELQAVLPDAVRDIGDYLTIDEGRVFYETVMATQQLCRMTGDLDSKIDEKVAEISRRLNEYAVRKKLASSMASNLNGDNKSLSYSRCSLTSTATNATSQPKRSRKHRAIKQAQSCGSRLSQGTVVTLVSIMAACLLAMSALYVLDWHNRNYGYHQHFETNTPSTKGELANLVISPANFMPSFQPDAPILLEKCFNPSCKTYCCTDTPPVVEDSRAIATHGLDNGDEVYPESPSNRTNGIARAPNLEHMAFETGVEIRIPALNVTLDQRYCVERSCNKRKGIFNVFVPVSRYMPDVALEIEIKAPISKVVSNCGAFPSTEFNHKVCPLSRTQQSESPVPTSTRLFDNIFELSMGSFIQSAYRFRVGYSTETCFSEDSNGSYEEYNLIFYRMCTLSSS
As for B2, the binding result is “binds”.
